Compound in the assay: CN[C@@H]1C[C@H]2O[C@@](C)([C@@H]1OC)n1c3ccccc3c3c4c(c5c6ccccc6n2c5c31)C(=O)NC4 [staurosporine]
Briefly: log2 fold change of tryptic peptide abundance, ligand vs vehicle (limited proteolysis) (log2 ratio); higher = more trypsin-susceptible (destabilized). The following applies: ligand concentration: 20 uM; sample: mouse liver crude lysate; replicate design: treated separately.

Chains of the proteins cited; added tags and fusions are not shown. Lines headed by an entry give the natural chain unless they say otherwise; changes in a name come on top.
UniProt Q6P3Y5: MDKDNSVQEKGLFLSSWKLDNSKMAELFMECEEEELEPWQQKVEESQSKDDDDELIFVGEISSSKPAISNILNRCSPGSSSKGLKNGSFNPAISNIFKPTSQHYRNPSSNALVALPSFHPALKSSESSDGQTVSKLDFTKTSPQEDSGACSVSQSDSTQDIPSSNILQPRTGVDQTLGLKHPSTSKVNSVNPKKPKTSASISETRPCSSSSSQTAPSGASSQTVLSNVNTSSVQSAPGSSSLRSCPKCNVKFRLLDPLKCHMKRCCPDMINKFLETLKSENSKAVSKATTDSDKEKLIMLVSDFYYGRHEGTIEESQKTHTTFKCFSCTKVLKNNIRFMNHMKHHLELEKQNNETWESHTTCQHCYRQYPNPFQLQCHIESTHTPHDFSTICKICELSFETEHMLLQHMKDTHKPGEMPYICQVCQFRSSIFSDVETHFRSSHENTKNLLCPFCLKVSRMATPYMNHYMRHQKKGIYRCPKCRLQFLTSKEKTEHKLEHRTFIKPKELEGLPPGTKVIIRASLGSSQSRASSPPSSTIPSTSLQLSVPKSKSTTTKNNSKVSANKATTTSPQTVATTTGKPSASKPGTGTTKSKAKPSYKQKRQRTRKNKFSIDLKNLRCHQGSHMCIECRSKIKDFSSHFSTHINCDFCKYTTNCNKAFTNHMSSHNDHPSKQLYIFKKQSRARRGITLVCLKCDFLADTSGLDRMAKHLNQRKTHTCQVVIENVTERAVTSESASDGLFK
UniProt Q6IEE6: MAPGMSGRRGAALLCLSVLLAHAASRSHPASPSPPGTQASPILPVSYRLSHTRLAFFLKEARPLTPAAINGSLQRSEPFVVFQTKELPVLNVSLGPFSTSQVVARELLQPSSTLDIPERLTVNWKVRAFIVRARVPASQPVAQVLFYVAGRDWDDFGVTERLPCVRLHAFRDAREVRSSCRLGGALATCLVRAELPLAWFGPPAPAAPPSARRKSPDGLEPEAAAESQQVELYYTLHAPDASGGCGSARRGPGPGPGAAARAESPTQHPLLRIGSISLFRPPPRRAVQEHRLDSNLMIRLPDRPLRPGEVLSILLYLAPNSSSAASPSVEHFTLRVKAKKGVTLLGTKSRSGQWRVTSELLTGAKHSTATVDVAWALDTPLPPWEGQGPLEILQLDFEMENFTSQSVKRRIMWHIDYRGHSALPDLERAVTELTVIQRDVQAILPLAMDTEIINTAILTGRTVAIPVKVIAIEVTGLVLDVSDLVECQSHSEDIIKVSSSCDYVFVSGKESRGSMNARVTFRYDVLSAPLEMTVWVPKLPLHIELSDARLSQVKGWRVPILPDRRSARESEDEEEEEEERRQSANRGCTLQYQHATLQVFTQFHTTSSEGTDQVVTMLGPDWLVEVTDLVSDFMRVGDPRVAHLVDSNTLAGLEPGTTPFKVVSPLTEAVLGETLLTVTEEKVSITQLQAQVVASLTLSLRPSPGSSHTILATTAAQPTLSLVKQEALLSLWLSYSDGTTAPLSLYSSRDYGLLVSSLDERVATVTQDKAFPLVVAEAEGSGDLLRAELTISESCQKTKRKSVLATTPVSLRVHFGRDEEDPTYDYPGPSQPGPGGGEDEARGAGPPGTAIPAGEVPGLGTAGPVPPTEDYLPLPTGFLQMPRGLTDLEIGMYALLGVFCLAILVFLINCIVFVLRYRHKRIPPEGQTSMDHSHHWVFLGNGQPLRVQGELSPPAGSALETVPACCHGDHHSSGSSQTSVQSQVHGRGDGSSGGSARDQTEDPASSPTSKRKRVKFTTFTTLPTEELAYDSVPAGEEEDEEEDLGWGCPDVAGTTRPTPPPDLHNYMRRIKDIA
UniProt Q69ZX8: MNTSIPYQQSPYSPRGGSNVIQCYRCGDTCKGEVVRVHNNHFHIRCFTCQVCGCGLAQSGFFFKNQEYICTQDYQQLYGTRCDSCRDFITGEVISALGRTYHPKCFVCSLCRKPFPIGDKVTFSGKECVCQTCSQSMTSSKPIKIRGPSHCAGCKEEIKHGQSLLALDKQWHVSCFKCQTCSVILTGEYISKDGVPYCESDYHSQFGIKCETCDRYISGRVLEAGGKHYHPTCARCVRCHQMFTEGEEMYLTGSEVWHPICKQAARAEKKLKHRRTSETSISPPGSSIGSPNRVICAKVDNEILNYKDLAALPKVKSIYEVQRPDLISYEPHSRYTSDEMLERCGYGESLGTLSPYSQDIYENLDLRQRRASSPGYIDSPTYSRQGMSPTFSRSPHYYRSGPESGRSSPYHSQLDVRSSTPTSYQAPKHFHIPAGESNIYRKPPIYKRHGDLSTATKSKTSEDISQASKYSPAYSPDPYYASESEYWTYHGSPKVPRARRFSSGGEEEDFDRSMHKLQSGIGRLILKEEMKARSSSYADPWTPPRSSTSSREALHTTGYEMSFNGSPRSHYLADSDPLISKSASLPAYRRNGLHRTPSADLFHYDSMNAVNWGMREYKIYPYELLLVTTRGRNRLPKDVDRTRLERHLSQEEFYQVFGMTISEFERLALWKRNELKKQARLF
UniProt Q6PCP5: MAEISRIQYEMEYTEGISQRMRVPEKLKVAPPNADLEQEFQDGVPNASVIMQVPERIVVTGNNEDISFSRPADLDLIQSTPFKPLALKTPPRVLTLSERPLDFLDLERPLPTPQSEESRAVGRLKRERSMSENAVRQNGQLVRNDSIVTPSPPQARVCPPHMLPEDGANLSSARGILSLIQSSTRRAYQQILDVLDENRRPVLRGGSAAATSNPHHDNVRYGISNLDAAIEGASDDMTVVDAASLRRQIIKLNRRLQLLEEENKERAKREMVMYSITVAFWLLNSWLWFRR
UniProt Q6DFW0: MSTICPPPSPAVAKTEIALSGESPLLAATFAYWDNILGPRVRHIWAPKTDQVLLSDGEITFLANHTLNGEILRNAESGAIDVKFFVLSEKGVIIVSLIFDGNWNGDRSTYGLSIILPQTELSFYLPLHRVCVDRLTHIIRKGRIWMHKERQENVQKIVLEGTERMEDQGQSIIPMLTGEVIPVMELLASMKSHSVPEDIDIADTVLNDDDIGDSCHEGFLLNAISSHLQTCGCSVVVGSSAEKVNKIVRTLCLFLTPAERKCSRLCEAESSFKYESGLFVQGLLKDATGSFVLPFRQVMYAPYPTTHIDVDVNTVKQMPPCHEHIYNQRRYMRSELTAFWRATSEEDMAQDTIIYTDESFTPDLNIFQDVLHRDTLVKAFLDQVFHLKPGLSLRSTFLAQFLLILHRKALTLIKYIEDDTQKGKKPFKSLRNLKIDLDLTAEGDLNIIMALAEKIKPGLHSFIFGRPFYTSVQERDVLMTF
UniProt Q6NZN0: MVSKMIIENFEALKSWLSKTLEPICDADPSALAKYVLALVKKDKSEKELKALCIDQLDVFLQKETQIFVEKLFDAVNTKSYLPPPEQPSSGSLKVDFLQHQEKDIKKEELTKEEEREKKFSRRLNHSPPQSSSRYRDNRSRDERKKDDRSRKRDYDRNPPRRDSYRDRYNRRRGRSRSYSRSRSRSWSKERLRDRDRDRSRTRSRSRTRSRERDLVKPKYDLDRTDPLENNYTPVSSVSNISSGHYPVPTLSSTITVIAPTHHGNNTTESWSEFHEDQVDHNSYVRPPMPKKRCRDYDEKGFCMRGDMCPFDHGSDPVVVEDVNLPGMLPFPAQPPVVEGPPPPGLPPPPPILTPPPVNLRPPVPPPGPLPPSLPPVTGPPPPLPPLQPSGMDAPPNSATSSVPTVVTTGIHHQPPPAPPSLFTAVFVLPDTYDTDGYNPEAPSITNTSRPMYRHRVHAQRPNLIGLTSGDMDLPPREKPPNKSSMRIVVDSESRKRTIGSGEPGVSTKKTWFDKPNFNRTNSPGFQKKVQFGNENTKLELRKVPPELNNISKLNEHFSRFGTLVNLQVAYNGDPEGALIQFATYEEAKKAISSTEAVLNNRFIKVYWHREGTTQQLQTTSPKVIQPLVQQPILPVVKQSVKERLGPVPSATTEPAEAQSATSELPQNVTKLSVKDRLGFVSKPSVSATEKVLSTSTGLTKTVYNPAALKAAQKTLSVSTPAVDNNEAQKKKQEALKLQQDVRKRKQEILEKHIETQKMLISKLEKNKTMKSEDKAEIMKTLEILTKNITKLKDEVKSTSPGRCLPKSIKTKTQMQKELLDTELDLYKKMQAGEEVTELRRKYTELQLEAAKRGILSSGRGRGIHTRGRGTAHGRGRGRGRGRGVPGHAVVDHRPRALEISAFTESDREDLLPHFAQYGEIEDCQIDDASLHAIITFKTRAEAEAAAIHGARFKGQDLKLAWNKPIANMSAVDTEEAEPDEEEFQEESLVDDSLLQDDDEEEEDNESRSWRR
UniProt Q6PB44: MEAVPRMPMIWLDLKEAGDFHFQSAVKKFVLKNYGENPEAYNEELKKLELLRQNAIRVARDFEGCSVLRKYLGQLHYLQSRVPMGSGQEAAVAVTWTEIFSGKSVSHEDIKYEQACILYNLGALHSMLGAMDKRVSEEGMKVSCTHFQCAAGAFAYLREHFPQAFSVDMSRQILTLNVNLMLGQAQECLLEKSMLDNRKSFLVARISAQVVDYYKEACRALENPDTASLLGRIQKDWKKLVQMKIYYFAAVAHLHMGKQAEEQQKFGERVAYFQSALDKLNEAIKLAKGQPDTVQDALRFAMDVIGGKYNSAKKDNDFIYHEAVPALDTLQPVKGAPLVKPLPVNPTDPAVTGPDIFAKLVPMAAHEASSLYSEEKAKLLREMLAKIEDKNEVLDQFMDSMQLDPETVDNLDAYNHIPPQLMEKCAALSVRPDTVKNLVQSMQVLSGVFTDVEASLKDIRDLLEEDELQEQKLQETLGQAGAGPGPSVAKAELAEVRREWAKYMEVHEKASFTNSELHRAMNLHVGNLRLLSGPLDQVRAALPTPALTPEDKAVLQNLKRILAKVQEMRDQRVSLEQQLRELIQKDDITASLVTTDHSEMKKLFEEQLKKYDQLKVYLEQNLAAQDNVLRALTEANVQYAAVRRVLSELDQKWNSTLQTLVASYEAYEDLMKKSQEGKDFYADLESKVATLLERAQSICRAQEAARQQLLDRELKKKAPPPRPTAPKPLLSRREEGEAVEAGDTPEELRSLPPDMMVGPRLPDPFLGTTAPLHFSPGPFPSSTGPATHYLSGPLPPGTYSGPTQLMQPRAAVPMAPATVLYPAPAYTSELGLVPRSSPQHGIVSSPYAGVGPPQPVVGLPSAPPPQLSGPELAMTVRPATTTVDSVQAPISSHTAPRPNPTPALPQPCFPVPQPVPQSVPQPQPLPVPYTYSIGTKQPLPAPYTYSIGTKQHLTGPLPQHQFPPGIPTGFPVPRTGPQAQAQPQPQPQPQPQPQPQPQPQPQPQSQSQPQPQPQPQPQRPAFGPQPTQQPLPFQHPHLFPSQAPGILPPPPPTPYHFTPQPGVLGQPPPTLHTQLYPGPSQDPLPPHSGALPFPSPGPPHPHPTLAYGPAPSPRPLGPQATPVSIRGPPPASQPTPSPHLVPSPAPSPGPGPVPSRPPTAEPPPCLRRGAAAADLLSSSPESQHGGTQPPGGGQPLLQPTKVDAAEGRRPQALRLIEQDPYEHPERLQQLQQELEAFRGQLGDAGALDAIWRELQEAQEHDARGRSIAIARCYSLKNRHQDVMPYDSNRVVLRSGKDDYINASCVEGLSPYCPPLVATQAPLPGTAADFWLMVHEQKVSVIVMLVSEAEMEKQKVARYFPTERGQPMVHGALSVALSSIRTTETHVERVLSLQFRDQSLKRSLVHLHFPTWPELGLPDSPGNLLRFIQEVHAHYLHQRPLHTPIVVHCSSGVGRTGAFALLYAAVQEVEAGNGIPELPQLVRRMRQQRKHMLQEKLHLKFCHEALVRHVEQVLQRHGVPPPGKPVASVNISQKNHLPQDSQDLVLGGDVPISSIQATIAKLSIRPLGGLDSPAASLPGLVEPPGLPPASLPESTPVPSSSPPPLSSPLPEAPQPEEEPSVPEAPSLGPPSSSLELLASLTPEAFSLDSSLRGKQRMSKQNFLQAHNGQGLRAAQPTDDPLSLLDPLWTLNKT
UniProt Q6PB93: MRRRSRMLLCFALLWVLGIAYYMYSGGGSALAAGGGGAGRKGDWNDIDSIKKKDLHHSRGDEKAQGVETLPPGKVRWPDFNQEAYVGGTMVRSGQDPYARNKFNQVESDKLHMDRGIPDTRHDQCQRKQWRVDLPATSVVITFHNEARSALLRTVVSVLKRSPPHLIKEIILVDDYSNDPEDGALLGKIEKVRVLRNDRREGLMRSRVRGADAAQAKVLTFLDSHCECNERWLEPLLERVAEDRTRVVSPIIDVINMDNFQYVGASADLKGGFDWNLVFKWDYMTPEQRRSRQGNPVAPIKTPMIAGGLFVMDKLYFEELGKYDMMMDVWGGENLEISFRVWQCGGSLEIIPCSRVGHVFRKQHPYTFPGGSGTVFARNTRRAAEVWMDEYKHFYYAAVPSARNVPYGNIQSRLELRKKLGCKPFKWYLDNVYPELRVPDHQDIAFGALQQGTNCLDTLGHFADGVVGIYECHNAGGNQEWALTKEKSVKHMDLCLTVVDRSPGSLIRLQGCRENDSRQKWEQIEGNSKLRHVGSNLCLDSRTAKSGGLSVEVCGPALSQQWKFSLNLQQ

In the supplement of paper PMC12819154, “High-throughput peptide-centric local stability assay extends protein–ligand identification to membrane proteins, tissues and bacteria” (Nature Structural & Molecular Biology, 2025) one finds log2 fold change data, which are given here for 31 targets.

This is one part of the list. Most entries show no effect beyond the scatter of the controls.

Consider “UniProt Q6P3Y5 (peptide sequence: MATPYMNHYMR, peptide start residue: 460)”, for which the log2 fold change is -0.486.
Next, “UniProt Q6P6J0 (peptide sequence: AEEAVELLK, peptide start residue: 160)”: 0.0798.
For “UniProt Q6IEE6 (peptide sequence: ESEDEEEEEEERR, peptide start residue: 569)”, the log2 fold change was 0.208.
Next, “UniProt Q6NV66 (peptide sequence: TFACQDCGK, peptide start residue: 605)”: 0.372.
For the target “UniProt Q6NVE9 (peptide sequence: KGACYGDDACFVAR, peptide start residue: 60)”, the log2 fold change is -0.241.
Under “UniProt Q6P2K6 (peptide sequence: TKNDDDIMDPISK, peptide start residue: 690)” stands -0.312; under “UniProt Q6PD10 (peptide sequence: GFRDDPTVHDGPDR, peptide start residue: 399)”, -0.158.
As to “UniProt Q6P3A8 (peptide sequence: DKYGKDR, peptide start residue: 110)”, the log2 fold change is -0.149.
On to “UniProt Q6PGC1 (peptide sequence: VLIDSVLR, peptide start residue: 1330)”, for which the log2 fold change came out at 0.35.
As to “UniProt Q6DTY7 (peptide sequence: ELTQNPLKK, peptide start residue: 6)”, the log2 fold change was -0.17.
Consider “UniProt Q6P3Z3 (peptide sequence: LLKPTAVPSIFHLSEK, peptide start residue: 75)”, for which the log2 fold change is -0.534.
Under “UniProt Q69ZX8 (peptide sequence: VHNNHFHIR, peptide start residue: 37)” stands -0.79.
With “UniProt Q6PAV2 (peptide sequence: FSGVDMNAAR, peptide start residue: 455)”, the log2 fold change was -0.192.
Under “UniProt Q6PCP5 (peptide sequence: RERSMSENAVR, peptide start residue: 126)” stands -0.579; under “UniProt Q6EDY6 (peptide sequence: LTVASFLSDR, peptide start residue: 843)”, -0.22.
For “UniProt Q6NZE7 (peptide sequence: RIDFTPVSPAPSPTR, peptide start residue: 108)”, the log2 fold change was -0.672.
Take “UniProt Q6P5D4 (peptide sequence: LSHVTGDSSHQK, peptide start residue: 652)”: the log2 fold change was -1.48.
Next, “UniProt Q6NZR2 (peptide sequence: ALAELGYER, peptide start residue: 152)”: -0.286; “UniProt Q6DFW0 (peptide sequence: ERQENVQK, peptide start residue: 149)”: 0.58.
In the case of “UniProt Q6NT99 (peptide sequence: IVDEANAR, peptide start residue: 80)”, the log2 fold change was -0.197.
With “UniProt Q6NXI6 (peptide sequence: TPAPATTPSHNPLANILSK, peptide start residue: 514)”, the log2 fold change was 0.223.
For “UniProt Q6NZN0 (peptide sequence: RLNHSPPQSSSR, peptide start residue: 123)”, the log2 fold change is -0.331.
On to “UniProt Q6PCL9 (peptide sequence: SSLDSTCLDSSR, peptide start residue: 523)”, for which the log2 fold change is 0.216.
As to “UniProt Q6PCQ0 (peptide sequence: SPYYSKPR, peptide start residue: 45)”, the log2 fold change was -0.528.
Regarding “UniProt Q6PB44 (peptide sequence: AALPTPALTPEDK, peptide start residue: 540)”, the log2 fold change amounted to 0.337.
Turning to “UniProt Q6PB93 (peptide sequence: HFYYAAVPSAR, peptide start residue: 393)”, the log2 fold change was found to be 0.256.
Under “UniProt Q6PAC3 (peptide sequence: SIYSQIQEQR, peptide start residue: 399)” stands -0.232; under “UniProt Q6PB66 (peptide sequence: ITELLYK, peptide start residue: 559)”, 0.795; under “UniProt Q6P1G2 (peptide sequence: LVDVMDVNTQK, peptide start residue: 106)”, 0.204.
Next, “UniProt Q6NS46 (peptide sequence: NRIEDPEINSIEDVKEGQLLR, peptide start residue: 1319)”: -0.565.
Under “UniProt Q6PCM1 (peptide sequence: ALYDVGDIVHSVR, peptide start residue: 730)” stands 0.569.
